Data published in publication PMC5896174.
These are yes or no findings as the source states them, for the method shown. Binding seen in cells or lysates may run through a third protein. Some binding calls cover weakened binding; strength is not graded here.

Sequences of proteins named here, by UniProt entry; tags and fusion partners are left off.
UniProt Q99684: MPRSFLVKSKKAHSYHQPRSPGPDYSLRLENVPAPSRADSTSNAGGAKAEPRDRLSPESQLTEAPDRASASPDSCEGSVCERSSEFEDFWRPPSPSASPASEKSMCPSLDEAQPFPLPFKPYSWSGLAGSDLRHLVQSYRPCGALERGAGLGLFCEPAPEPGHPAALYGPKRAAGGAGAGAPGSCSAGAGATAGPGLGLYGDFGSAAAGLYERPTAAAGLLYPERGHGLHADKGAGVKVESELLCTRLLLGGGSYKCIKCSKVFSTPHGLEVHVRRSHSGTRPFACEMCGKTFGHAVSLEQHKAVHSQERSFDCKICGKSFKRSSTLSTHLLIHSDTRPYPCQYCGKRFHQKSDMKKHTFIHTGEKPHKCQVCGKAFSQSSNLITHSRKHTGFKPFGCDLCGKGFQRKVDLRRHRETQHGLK
UniProt Q9UKL0: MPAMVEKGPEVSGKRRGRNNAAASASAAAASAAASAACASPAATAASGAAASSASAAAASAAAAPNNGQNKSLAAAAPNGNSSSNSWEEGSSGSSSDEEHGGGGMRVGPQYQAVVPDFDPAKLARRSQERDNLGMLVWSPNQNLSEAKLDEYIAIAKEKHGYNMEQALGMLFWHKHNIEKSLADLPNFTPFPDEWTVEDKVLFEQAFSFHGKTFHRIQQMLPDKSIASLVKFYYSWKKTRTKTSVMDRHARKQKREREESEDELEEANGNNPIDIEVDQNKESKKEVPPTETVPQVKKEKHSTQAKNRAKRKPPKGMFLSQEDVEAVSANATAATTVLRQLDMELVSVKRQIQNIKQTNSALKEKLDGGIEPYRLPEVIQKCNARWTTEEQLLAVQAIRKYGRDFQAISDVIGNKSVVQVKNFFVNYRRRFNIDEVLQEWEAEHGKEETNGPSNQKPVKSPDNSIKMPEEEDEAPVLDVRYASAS

Experiments:
[1] = biological target: GFI1, endogenous (human (endogenous in THP1)) (UniProt Q99684); assay: condition: only cells treated with 250 nM OG86 for 48 hr; co-IP; endogenous proteins; lysates of THP1 AML cells treated with 250 nM OG86 for 48 hr, immunoprecipitated with anti-GFI1, western blot
[2] = biological target: GFI1, endogenous (human (endogenous in THP1)) (UniProt Q99684); assay: co-IP; endogenous proteins; THP1 AML cell lysates (cytoplasmic and nuclear fractions) immunoprecipitated with anti-GFI1, anti-LSD1 or anti-RCOR1, western blot; cells treated with DMSO vehicle or 250 nM OG86 for 48 hr (reversible inhibitors GSK354, PDD31777, PDD32116 also tested)

binding [1]: no binding
binding [2]: binds
Substance: RCOR1 (CoREST), endogenous (from UniProt Q9UKL0 1-485)
